Assay: general procedure: solution-phase peptide synthesis; HATU / N,N-diisopropylethylamine
Conditions: late stage modification step

| Substance | final purity (method not given) | step yield |
| --- | --- | --- |
| 2-PhPh-AQTGTGKT | purity of 95% or more | 31% yield |
| Ph-AQTGTGKT | purity of 90% or more | 33% yield |
| Naphthyl-AQTGTGKT | 85% | 33% yield |
| 3-PhPh-AQTGTGKT | purity of 90% or more | 5% yield |
| 4-MeOPh-AQTGTGKT | 89% | 10% yield |
| Ac-AQTGTGKT | – | 37% yield |
